Results are given in words; binding and its absence hold for the method and conditions named. In cells and extracts the contact can be indirect. Some results given as binding are weak or reduced against the parent protein; the word gives no strength.
Molecular target: Intercellular adhesion molecule-1 (mouse (endogenous in brain tissue)) (UniProt P13597)
Assay: co-IP; mouse brain tissue lysates (WT, uninjured and 48 h after 10 and 20 psi FPI); 500 ug total protein with 10 ug anti-ICAM-1 antibody overnight at 4°C, Protein A/G magnetic beads 1 h (Pierce Classic Magnetic IP/Co-IP kit); Western blots with ICAM-1, LFA-1 and Mac-1 antibodies; anti-IgG as negative control

The chains behind the UniProt entries cited, without tags or fusion partners. Where a name states a change or a piece, a line headed by the entry shows the natural chain unless it says otherwise. Residues count along the entry.
UniProt P13597, residues 28-537: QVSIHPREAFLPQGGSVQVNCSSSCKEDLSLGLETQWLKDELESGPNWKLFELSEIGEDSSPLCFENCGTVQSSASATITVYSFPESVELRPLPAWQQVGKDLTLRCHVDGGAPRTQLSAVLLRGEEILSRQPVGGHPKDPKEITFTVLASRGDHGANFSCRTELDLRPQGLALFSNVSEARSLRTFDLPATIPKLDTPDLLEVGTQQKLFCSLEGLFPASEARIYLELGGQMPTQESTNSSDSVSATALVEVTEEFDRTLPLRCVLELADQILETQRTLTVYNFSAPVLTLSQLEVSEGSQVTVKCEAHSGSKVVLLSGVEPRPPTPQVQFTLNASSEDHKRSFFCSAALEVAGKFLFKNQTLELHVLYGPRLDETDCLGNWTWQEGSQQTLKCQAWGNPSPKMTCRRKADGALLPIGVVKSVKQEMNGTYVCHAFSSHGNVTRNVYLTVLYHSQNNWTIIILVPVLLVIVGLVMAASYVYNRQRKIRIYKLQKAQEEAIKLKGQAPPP
UniProt P24063: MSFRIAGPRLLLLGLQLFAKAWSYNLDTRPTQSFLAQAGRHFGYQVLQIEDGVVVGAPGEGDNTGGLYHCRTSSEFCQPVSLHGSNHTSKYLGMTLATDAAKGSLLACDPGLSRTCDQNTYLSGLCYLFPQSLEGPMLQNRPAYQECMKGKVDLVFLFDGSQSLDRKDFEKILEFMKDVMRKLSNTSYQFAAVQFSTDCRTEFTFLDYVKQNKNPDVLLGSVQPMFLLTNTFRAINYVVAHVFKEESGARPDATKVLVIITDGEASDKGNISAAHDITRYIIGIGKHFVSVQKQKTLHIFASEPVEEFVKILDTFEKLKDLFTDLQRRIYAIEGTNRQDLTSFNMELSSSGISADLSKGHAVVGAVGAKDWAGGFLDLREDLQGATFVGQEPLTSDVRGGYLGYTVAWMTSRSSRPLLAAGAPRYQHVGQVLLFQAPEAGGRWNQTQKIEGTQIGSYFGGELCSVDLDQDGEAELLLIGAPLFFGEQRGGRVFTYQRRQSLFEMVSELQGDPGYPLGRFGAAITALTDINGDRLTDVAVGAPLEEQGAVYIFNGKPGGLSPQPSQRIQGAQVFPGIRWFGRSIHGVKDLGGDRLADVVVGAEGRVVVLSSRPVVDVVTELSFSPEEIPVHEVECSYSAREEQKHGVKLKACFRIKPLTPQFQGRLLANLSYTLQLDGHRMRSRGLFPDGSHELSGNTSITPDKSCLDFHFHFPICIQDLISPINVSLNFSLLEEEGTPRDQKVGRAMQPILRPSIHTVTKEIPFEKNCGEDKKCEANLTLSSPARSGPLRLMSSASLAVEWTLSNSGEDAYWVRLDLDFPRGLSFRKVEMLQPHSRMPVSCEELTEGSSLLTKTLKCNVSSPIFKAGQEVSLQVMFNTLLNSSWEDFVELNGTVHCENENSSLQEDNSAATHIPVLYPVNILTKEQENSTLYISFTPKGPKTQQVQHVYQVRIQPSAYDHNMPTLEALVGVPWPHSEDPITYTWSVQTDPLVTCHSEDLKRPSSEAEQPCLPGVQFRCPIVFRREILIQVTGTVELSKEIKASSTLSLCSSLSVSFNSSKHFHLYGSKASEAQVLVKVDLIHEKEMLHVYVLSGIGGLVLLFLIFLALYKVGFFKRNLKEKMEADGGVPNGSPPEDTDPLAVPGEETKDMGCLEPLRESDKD
UniProt P05555: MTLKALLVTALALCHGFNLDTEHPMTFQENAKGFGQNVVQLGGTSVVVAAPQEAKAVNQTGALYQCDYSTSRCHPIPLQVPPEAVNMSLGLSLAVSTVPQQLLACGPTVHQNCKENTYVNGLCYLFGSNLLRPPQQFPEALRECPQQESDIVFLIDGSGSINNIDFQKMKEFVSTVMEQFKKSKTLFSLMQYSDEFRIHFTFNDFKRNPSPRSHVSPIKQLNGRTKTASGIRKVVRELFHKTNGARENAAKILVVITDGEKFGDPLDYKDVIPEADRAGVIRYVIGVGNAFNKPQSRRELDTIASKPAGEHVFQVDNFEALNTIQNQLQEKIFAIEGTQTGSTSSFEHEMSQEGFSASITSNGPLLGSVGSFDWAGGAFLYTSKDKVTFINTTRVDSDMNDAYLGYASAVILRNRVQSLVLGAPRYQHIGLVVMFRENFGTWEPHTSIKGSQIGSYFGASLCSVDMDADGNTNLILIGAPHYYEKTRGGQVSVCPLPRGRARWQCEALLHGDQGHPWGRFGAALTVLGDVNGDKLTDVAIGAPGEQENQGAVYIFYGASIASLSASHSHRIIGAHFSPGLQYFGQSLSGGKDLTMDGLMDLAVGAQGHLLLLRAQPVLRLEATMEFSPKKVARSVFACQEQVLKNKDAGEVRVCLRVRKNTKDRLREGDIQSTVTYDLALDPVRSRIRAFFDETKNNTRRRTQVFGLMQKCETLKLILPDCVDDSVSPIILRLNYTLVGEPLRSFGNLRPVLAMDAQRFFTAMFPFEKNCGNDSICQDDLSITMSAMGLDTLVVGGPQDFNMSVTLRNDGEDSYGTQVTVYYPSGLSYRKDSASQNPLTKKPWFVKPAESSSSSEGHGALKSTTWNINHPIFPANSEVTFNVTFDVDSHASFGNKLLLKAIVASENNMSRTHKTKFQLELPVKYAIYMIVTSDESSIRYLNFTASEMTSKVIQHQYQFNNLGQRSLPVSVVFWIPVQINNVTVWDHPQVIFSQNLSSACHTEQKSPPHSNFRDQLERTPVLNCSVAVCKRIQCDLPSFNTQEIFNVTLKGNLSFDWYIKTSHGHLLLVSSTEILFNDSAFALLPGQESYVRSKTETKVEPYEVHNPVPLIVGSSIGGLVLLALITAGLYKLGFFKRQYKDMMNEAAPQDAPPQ

Substance	binding
leukocyte function-associated antigen (LFA)-1 (from UniProt P24063 24-1162; P11835 24-771) (complex)	binds
macrophage-1 antigen (from UniProt P05555 17-1153; P11835 24-771) (complex)	binds

Reference: PMC8287878
